Measured values reported in the supplement of paper PMC11006884.
Only a part is listed here, and it is no random draw.

The targets below were run with COC(=O)C#Cc1ccccc1 [methyl 3-phenylpropiolate] (assay: log2 ratio of iodoacetamide-alkyne labeling of the cysteine site, DMSO over compound (competition); higher = stronger covalent engagement of the cysteine by the compound, active = 1 or more). Conditions: 500 µM; treatment time 1 h; system: HEK293T cell lysate.
Outline: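 Reporter intensities give each cysteine's log2 competition ratio as the mean of control channels over the mean of compound channels. The samples were HEK293T lysate (2 mg/mL) given vehicle or electrophile (500 µM, 1 h, ambient temperature), then iodoacetamide alkyne (1 h), followed by click coupling to sCIP-TMT reagents, pooling, trypsin digestion overnight at 37 °C, streptavidin enrichment, acid elution, Orbitrap Eclipse LC-MS/MS with FAIMS and FragPipe quantification. Duplicate channels and three replicates were run, and cysteines quantified in only one replicate were discarded.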

Target | log2 ratio of iodoacetamide-alkyne labeling
CKAP5 C1946 (UniProt Q14008) | inactive: 0.76
HNRNPD C226 (UniProt Q14103) | inactive: -0.397
SAFB2 C361 (UniProt Q14151) | inactive: 0.0563
MCM6 C302 (UniProt Q14566) | inactive: 0.0739
FHL1 C92 (UniProt Q13642) | inactive: 0.228
FHL3 C7 (UniProt Q13643) | inactive: 0.165
EIF3A C78 (UniProt Q14152) | inactive: 0.382
CUL3 C636 (UniProt Q13618) | inactive: 0.464
DDX39B C300 (UniProt Q13838) | inactive: -0.0333
CTTN C112 (UniProt Q14247) | inactive: 0.88
SPCS2 C26 (UniProt Q15005) | active: 1.62
SMC1A C781 (UniProt Q14683) | inactive: -0.0606
UniProt Q14574_C471 | inactive: 0.274
BMS1 C556 (UniProt Q14692) | inactive: 0.441
UniProt Q14004_C701 | inactive: 0.296
UniProt Q13885_C127 | inactive: -0.581
DYNC1H1 C2076 (UniProt Q14204) | inactive: 0.0469
PDCD11 C1218 (UniProt Q14690) | inactive: 0.277
DYNC1H1 C1888 (UniProt Q14204) | inactive: 0.266
BMS1 C895 (UniProt Q14692) | inactive: 0.11
HLTF C461 (UniProt Q14527) | inactive: 0.799
UniProt Q15019_C114 | inactive: 0.189
